Consider 37 targets from the supplement of paper PMC6411743.

Chains of the proteins cited; added tags and fusions are not shown. Lines headed by an entry give the natural chain unless they say otherwise; changes in a name come on top.
UniProt Q15291, whole entry: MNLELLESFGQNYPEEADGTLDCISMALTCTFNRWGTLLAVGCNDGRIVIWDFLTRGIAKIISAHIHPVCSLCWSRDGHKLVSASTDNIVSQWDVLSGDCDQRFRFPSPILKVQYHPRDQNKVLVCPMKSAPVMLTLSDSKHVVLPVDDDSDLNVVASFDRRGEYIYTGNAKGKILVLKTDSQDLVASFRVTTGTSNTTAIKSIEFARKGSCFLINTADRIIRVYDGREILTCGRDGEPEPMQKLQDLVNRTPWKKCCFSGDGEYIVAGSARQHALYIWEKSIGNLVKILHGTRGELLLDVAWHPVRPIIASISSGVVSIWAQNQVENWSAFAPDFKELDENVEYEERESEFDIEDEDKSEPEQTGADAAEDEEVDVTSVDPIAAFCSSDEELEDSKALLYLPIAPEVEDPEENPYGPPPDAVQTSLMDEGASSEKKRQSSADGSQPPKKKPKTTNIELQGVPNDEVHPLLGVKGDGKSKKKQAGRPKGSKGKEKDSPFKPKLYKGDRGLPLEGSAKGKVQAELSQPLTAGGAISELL
UniProt Q3MHD2: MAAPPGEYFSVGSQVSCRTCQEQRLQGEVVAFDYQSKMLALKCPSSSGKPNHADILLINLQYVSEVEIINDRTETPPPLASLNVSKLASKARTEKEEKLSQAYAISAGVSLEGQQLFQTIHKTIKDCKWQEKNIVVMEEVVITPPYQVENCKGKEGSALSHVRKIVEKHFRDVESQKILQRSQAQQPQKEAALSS
UniProt Q15648, whole entry: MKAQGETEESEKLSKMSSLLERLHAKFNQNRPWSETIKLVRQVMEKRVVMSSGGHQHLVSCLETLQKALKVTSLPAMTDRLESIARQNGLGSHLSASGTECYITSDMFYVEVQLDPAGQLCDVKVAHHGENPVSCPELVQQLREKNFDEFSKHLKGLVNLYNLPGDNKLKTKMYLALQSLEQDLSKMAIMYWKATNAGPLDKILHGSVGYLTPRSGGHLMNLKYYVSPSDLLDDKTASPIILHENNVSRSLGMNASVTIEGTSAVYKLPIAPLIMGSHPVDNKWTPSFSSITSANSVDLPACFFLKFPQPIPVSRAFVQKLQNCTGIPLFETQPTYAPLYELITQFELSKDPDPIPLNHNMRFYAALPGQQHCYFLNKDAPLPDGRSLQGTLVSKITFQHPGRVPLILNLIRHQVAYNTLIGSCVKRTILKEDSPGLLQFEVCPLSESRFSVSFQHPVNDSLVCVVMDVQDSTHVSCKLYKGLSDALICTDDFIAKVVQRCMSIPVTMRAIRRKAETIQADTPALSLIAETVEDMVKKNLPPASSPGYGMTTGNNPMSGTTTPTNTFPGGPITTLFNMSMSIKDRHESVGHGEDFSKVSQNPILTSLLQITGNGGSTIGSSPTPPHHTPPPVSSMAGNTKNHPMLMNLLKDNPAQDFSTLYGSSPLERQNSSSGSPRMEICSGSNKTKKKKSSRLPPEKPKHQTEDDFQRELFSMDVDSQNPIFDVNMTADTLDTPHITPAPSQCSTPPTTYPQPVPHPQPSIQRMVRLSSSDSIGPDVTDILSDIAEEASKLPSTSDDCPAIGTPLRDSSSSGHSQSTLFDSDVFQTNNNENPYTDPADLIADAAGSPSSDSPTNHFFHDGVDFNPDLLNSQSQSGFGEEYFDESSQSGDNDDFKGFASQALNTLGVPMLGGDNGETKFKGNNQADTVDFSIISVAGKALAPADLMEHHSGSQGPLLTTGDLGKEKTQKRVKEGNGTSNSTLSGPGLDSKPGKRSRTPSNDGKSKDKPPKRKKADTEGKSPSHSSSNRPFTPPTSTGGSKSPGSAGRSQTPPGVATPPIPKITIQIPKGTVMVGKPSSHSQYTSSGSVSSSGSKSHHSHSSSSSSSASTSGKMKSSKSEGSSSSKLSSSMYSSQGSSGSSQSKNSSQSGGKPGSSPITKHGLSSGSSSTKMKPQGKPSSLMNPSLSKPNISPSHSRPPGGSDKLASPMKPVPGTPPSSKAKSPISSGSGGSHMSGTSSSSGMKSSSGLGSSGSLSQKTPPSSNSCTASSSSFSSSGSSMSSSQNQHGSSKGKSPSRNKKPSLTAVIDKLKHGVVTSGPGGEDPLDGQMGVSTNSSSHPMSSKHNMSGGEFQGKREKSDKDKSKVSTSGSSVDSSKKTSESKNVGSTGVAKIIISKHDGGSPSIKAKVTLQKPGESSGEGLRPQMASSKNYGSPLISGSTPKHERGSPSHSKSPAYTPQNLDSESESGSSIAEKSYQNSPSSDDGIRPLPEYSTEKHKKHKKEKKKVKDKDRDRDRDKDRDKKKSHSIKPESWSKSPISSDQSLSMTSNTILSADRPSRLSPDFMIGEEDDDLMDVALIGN
UniProt Q15274: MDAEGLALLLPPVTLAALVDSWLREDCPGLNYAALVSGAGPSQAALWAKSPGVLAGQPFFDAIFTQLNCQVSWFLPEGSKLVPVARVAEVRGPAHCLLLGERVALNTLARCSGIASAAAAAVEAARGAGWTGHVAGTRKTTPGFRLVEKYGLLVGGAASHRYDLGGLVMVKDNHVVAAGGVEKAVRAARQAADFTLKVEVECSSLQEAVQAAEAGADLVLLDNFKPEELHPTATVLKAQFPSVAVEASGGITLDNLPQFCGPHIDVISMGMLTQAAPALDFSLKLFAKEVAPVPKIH
UniProt Q15649: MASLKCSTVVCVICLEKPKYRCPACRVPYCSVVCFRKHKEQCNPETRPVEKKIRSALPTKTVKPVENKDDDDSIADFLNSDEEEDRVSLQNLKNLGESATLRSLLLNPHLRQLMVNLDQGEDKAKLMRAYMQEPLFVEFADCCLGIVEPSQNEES
UniProt Q16206: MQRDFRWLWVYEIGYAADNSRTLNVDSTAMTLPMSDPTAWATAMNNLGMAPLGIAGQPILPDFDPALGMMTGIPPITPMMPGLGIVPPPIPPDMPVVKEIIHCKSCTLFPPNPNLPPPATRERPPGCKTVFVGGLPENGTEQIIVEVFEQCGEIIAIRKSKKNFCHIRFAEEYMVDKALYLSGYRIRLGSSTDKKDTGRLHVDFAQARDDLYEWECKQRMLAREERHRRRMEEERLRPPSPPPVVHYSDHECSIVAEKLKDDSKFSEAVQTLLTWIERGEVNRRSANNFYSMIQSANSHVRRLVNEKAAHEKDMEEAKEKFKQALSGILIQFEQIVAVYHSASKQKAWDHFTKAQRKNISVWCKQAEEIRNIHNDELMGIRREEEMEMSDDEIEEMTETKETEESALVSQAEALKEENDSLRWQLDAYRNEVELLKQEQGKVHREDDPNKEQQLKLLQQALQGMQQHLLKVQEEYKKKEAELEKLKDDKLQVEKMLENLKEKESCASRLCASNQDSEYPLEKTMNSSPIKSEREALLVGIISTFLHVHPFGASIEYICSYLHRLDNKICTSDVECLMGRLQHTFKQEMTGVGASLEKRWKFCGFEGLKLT
UniProt Q15007: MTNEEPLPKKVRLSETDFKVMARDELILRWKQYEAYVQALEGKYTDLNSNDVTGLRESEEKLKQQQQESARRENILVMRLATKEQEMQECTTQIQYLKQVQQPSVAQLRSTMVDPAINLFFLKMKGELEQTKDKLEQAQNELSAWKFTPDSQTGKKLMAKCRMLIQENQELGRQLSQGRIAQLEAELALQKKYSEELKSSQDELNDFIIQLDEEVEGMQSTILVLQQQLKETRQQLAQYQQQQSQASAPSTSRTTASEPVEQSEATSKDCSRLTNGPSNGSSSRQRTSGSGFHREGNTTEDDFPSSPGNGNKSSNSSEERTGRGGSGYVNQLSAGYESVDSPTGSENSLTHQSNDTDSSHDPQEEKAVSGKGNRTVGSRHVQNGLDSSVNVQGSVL
UniProt Q8IWW6: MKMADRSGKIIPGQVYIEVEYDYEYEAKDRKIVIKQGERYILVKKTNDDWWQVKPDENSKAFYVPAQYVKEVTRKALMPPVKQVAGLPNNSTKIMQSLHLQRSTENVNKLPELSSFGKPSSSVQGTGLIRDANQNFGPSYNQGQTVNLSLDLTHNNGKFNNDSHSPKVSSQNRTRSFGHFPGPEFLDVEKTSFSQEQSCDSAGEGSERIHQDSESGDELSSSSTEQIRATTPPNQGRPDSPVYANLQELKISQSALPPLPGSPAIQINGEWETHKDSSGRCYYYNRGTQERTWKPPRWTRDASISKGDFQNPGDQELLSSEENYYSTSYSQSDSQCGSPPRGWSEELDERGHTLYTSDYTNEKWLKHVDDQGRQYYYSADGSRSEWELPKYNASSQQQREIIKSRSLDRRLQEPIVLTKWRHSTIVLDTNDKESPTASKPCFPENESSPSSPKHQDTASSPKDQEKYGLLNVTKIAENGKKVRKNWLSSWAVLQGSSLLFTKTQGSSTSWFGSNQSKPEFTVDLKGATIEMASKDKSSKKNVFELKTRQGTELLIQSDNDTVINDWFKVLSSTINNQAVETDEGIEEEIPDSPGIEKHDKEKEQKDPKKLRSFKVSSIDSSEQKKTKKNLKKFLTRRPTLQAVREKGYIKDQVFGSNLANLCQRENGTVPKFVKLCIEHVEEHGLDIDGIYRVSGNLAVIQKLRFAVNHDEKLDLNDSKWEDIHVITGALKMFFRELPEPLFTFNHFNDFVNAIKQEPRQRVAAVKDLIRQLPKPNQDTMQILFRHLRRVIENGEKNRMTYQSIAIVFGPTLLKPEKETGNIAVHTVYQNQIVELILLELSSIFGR
UniProt Q14457, whole entry: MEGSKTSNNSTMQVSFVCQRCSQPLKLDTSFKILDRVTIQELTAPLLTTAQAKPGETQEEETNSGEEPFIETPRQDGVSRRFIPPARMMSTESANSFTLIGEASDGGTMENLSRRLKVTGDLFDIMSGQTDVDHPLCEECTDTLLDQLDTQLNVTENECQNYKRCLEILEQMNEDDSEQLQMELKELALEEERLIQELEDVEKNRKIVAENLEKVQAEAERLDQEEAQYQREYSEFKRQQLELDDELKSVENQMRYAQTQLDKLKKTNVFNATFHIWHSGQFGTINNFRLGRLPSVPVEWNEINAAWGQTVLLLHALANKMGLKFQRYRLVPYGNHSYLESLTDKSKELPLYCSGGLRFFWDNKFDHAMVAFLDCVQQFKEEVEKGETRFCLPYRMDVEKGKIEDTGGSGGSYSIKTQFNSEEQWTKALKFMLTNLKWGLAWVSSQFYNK
UniProt Q15311: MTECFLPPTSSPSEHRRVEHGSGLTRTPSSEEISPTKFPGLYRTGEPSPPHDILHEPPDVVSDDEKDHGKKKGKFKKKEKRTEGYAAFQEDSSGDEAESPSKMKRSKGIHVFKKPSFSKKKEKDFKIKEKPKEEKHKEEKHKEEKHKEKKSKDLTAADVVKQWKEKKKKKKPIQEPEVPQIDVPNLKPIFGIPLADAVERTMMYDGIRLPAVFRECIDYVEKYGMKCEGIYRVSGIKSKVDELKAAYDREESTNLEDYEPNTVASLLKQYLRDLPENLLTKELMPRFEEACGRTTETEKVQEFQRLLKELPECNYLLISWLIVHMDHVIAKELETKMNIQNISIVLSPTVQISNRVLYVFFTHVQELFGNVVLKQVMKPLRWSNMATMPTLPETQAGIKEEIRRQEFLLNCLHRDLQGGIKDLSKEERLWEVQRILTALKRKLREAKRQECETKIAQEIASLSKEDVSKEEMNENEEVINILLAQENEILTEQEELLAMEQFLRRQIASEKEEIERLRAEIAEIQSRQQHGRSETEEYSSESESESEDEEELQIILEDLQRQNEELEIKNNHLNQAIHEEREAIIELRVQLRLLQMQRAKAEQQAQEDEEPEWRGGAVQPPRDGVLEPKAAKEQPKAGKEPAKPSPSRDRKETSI
UniProt Q14974, whole entry: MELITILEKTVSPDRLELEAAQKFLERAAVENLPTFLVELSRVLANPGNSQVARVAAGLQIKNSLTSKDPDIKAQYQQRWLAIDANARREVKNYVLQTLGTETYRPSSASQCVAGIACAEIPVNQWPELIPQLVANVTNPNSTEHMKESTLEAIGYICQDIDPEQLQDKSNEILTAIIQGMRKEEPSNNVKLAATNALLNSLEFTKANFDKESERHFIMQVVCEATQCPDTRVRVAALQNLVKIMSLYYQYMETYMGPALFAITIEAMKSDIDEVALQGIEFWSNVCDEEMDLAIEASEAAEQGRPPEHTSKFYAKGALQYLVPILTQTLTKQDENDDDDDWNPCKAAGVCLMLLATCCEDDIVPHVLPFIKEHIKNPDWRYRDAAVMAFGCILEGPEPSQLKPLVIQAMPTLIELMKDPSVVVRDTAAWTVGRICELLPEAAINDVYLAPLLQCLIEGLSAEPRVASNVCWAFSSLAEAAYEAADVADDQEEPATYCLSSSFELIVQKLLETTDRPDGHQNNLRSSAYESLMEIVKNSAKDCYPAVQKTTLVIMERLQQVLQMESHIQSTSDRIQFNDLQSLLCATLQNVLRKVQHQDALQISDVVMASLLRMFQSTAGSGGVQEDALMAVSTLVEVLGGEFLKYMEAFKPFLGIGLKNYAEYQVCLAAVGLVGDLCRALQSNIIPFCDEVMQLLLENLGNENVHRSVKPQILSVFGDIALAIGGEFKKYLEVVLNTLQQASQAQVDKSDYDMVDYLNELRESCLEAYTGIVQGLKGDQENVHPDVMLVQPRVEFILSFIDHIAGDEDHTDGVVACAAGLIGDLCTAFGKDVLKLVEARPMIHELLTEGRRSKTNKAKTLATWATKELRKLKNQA

± gives the standard deviation of the averaged measurements. Only a part is listed here, and it is no random draw. Most entries show no effect beyond the scatter of the controls.

Compound in the first assay: Nc1ncnc2c1ncn2[C@@H]1O[C@H](COP(=O)(O)OP(=O)(O)OP(=O)(O)O)[C@@H](O)[C@H]1O [adenosine triphosphate]
As to the kind of experiment: NP40-soluble protein abundance relative to vehicle (solubility fold change) (ratio); higher = more soluble protein in presence of ATP. The conditions noted are these: concentration: 0.1mM. The method in brief: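 Each value is a fold change relative to the detergent-processed vehicle, calculated per replicate from vsn-normalised intensities. Jurkat crude lysate received eight concentrations (0.1 to 10 mM) for 10 min at room temperature and 3 min at 37 °C, then was solubilised in 0.8% NP40 with benzonase (60 min, 4 °C). The ultracentrifuged supernatant was TMT-labelled and run by LC-MS/MS in three independent experiments.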
Take UniProt Q16829 and related entries: the NP40-soluble protein abundance was 0.982 ± 0.033.

For UniProt Q15291 and related entries, the NP40-soluble protein abundance was determined as 0.977 ± 0.046.

As for UniProt Q3MHD2 and related entries, the NP40-soluble protein abundance was determined as 1.01 ± 0.072.

As for MED1 (UniProt Q15648), the NP40-soluble protein abundance turned out to be 0.991 ± 0.047.

UniProt Q4ADV7 and related entries: the NP40-soluble protein abundance amounted to 0.989 ± 0.12.

Consider UniProt Q17R31 and related entries, for which the NP40-soluble protein abundance amounted to 1.01 ± 0.047.

Turning to QPRT (UniProt Q15274), the NP40-soluble protein abundance is 0.974 ± 0.057.

For the target C5orf22 (UniProt Q49AR2), the NP40-soluble protein abundance is 0.989 ± 0.046.

ZNHIT3 (UniProt Q15649): the NP40-soluble protein abundance turned out to be 0.962 ± 0.13.

On to UniProt Q16206 and related entries, for which the NP40-soluble protein abundance stood at 0.933 ± 0.21.

For WTAP (UniProt Q15007), the NP40-soluble protein abundance was 0.944 ± 0.063.

As to UniProt Q15003 and related entries, the NP40-soluble protein abundance was determined as 0.993 ± 0.019.

For the target SF3A1 (UniProt Q15459), the NP40-soluble protein abundance is 1 ± 0.03.

Consider PPP1R7 (UniProt Q15435), for which the NP40-soluble protein abundance is 0.998 ± 0.038.

For the target TAF9 (UniProt Q16594), the NP40-soluble protein abundance is 0.901 ± 0.042.

As to UniProt Q15223, the NP40-soluble protein abundance was determined as 0.935 ± 0.032.

EEA1 (UniProt Q15075): the NP40-soluble protein abundance was determined as 0.966 ± 0.03.

ACSF3 (UniProt Q4G176): the NP40-soluble protein abundance was found to be 1.05 ± 0.079.

In the case of “Q1RLN5 and related entries (UniProt Q8IWW6)”, the NP40-soluble protein abundance worked out at 1.08 ± 0.066.

For BECN1 (UniProt Q14457), the NP40-soluble protein abundance was 0.988 ± 0.041.

In the case of NSDHL (UniProt Q15738), the NP40-soluble protein abundance was determined as 1.02 ± 0.065.

Regarding UniProt Q2KHR3 and related entries, the NP40-soluble protein abundance was found to be 1.09 ± 0.031.

Turning to LBR (UniProt Q14739), the NP40-soluble protein abundance was 0.998 ± 0.06.

For the target RALBP1 (UniProt Q15311), the NP40-soluble protein abundance was determined as 1.04 ± 0.0038.

Consider UniProt Q16576 and related entries, for which the NP40-soluble protein abundance stood at 1.04 ± 0.052.

For the target EXOSC7 (UniProt Q15024), the NP40-soluble protein abundance turned out to be 1.09 ± 0.1.

As for UniProt Q14865, the NP40-soluble protein abundance was found to be 0.997 ± 0.072.

UniProt Q14318-2|Q14318: the NP40-soluble protein abundance is 0.996 ± 0.039.

For KPNB1 (UniProt Q14974), the NP40-soluble protein abundance worked out at 0.995 ± 0.026.

Regarding UniProt Q14693 and related entries, the NP40-soluble protein abundance was determined as 1.01 ± 0.095.

Take ARHGEF6 (UniProt Q15052): the NP40-soluble protein abundance is 0.982 ± 0.028.

With MAPKAPK3 (UniProt Q16644), the NP40-soluble protein abundance is 0.994 ± 0.034.

As to UniProt Q14653 and related entries, the NP40-soluble protein abundance is 1.01 ± 0.036.

Turning to BMS1 (UniProt Q14692), the NP40-soluble protein abundance is 0.956 ± 0.081.

As to DHX34 (UniProt Q14147), the NP40-soluble protein abundance amounted to 1.23 ± 0.21.

For UniProt Q14161-5|Q14161, the NP40-soluble protein abundance was determined as 0.988 ± 0.019.

On to UniProt Q14789 and related entries, for which the NP40-soluble protein abundance worked out at 0.989 ± 0.014.

Still in this assay, the particulars now being: concentration: 0.5mM.
For UniProt Q16829 and related entries, the NP40-soluble protein abundance stood at 0.939 ± 0.08.

Regarding UniProt Q15291 and related entries, the NP40-soluble protein abundance came out at 0.994 ± 0.021.

As to UniProt Q3MHD2 and related entries, the NP40-soluble protein abundance was 1.03 ± 0.052.

Consider MED1 (UniProt Q15648), for which the NP40-soluble protein abundance came out at 1.01 ± 0.06.

On to UniProt Q4ADV7 and related entries, for which the NP40-soluble protein abundance amounted to 0.97 ± 0.088.

Consider UniProt Q17R31 and related entries, for which the NP40-soluble protein abundance came to 1.01 ± 0.049.

With QPRT (UniProt Q15274), the NP40-soluble protein abundance came out at 0.984 ± 0.047.

C5orf22 (UniProt Q49AR2): the NP40-soluble protein abundance stood at 1.01 ± 0.027.

In the case of ZNHIT3 (UniProt Q15649), the NP40-soluble protein abundance turned out to be 0.907 ± 0.12.

On to UniProt Q16206 and related entries, for which the NP40-soluble protein abundance was determined as 1.1 ± 0.14.

In the case of WTAP (UniProt Q15007), the NP40-soluble protein abundance was 0.939 ± 0.061.

With UniProt Q15003 and related entries, the NP40-soluble protein abundance amounted to 1.02 ± 0.063.

For SF3A1 (UniProt Q15459), the NP40-soluble protein abundance came to 1.09 ± 0.057.

For the target PPP1R7 (UniProt Q15435), the NP40-soluble protein abundance came out at 0.98 ± 0.046.

Turning to TAF9 (UniProt Q16594), the NP40-soluble protein abundance is 0.865 ± 0.13.

On to UniProt Q15223, for which the NP40-soluble protein abundance is 0.953 ± 0.057.

Regarding EEA1 (UniProt Q15075), the NP40-soluble protein abundance worked out at 0.984 ± 0.062.

On to ACSF3 (UniProt Q4G176), for which the NP40-soluble protein abundance was 1.06 ± 0.069.

As for “Q1RLN5 and related entries (UniProt Q8IWW6)”, the NP40-soluble protein abundance stood at 1.16 ± 0.045.

Consider BECN1 (UniProt Q14457), for which the NP40-soluble protein abundance is 0.999 ± 0.057.

Turning to NSDHL (UniProt Q15738), the NP40-soluble protein abundance is 1.02 ± 0.059.

As to UniProt Q2KHR3 and related entries, the NP40-soluble protein abundance stood at 1.04 ± 0.081.

As for LBR (UniProt Q14739), the NP40-soluble protein abundance came to 0.948 ± 0.036.

With RALBP1 (UniProt Q15311), the NP40-soluble protein abundance stood at 1.08 ± 0.061.

As for UniProt Q16576 and related entries, the NP40-soluble protein abundance was 1.06 ± 0.051.

EXOSC7 (UniProt Q15024): the NP40-soluble protein abundance was 1.06 ± 0.071.

In the case of UniProt Q14865, the NP40-soluble protein abundance amounted to 1.02 ± 0.066.

Regarding UniProt Q14318-2|Q14318, the NP40-soluble protein abundance was 1.01 ± 0.028.

As to KPNB1 (UniProt Q14974), the NP40-soluble protein abundance is 1.008 ± 0.0084.

Regarding UniProt Q14693 and related entries, the NP40-soluble protein abundance is 1.03 ± 0.043.

Consider ARHGEF6 (UniProt Q15052), for which the NP40-soluble protein abundance amounted to 1.02 ± 0.035.

Turning to MAPKAPK3 (UniProt Q16644), the NP40-soluble protein abundance is 0.999 ± 0.057.

With UniProt Q14653 and related entries, the NP40-soluble protein abundance stood at 0.995 ± 0.011.

In the case of BMS1 (UniProt Q14692), the NP40-soluble protein abundance was 0.921 ± 0.053.

For the target DHX34 (UniProt Q14147), the NP40-soluble protein abundance came to 1.24 ± 0.25.

Take UniProt Q14161-5|Q14161: the NP40-soluble protein abundance was 0.961 ± 0.012.

In the case of UniProt Q14789 and related entries, the NP40-soluble protein abundance was 0.998 ± 0.053.
